Measurements reported in paper PMC7262597.
Results are given in words; binding and its absence hold for the method and conditions named. Binding seen in cells or lysates may run through a third protein. Some results given as binding are weak or reduced against the parent protein; the word gives no strength. For some assays here: Sequences can lack the tags named with a protein. Values belong to the binder of their own block, whether it stands above or below them.

Chains of the proteins cited; added tags and fusions are not shown.
UniProt O95166: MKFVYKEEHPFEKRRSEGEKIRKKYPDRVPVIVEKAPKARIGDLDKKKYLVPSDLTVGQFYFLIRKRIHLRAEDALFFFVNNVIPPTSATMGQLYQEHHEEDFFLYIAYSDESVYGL

Columns and labels:
[1] = target: GST-Atg8a-WT (Drosophila) (UniProt Q9W2S2); test: pull-down; GST-Atg8a proteins (1–10 μg) on glutathione-Sepharose beads, 10 μL of in vitro translated 35S-methionine-labeled protein, NETN buffer (50 mM Tris pH 8.0, 150 mM NaCl, 1 mM EDTA, 0.5% Nonidet P-40, 1 mM DTT), 2 h at 4°C, six washes, SDS-PAGE and autoradiography; only the target purified
[2] = target: GST-Atg8a residues 26–121 (Drosophila) (UniProt Q9W2S2); test: as above
[3] = target: T1, GST-Atg8a N-terminal half (amino acid residues 1–71) (Drosophila) (UniProt Q9W2S2); test: as above
T1 sequence: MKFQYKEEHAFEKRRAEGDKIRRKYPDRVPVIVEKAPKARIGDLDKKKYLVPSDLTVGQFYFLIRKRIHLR

[4] = target: T2, GST-Atg8a residues 1–26 (Drosophila) (UniProt Q9W2S2); test: as above
T2 sequence: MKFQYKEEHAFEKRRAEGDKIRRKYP

[5] = target: GST-Atg8a-LDS mutant (Y49A) (Drosophila) (UniProt Q9W2S2); test: as above
[6] = target: GST-Atg8a-WT (Drosophila) (UniProt Q9W2S2); test: pull-down; GST, GST-Atg8a-WT or GST-Atg8a-LDS pulled down and incubated with larval lysate expressing Sir2-myc; eluates blotted with anti-myc; only the target purified
[7] = target: GST-Atg8a-LDS mutant (Y49A) (Drosophila) (UniProt Q9W2S2); test: as above
GABARAP = GABARAP (UniProt O95166); test: pull-down; GST pull-down of mammalian proteins (Figures S1B and S1C); which partner carried GST is not told in the text shown

binding [1]: binds
binding [2]: no binding
binding [3]: binds
binding [4]: no binding
binding [5]: binds
B1: In vitro translated YL-1 (35S-Myc-YL-1) (protein, UniProt Q9VKM6 1-351)
chain: MAASRSRRNNAGNKIAHLLNEEEEDDFYKTSYGGFQEDEEDKEYEQKDEEEDVVDSDFSIDENDEPVSDQEEAPEKKRKRGVVNTKAYKETKPAVKKETKATPALHKKRPGGGVTKRRPRPRFTVLDSGRKSIRTSTAIKTQATKIRLKELDDARKRKKKKVRVEDYMPTQEELLEEAKITEEENTKSLEKFQKMELEKKKSRPTKRTFSGPTIRYHSLTMPAMRKPTRGANPAVDSKDLAGKCERTFVTIENDFNDKVFQSLFRHKAPPKASNGICPITRLPARYFDPITQQPYYSIQAFKILREAYYMQLEQQGGGSEQPELAKWLEWRKLVKENRLKASAAASKNGDN
modifications: 35S-methionine label

binding [6]: binds
binding [7]: binds
B2: Sir2-myc (enzyme, UniProt Q9VK34 1-823)
chain: MMENYEEIRLGHIRSKDLGNQVPDTTQFYPPTKFDFGAEILASTSTEAEAEAEATATTTEPATSELAGKANGEIKTKTLAAREEQEIGANLEHKTKNPTKSMGEDEDDEEEEEEDDEEEEEDDEEGITGTSNEDEDSSSNCSSSVEPDWKLRWLQREFYTGRVPRQVIASIMPHFATGLAGDTDDSVLWDYLAHLLNEPKRRNKLASVNTFDDVISLVKKSQKIIVLTGAGVSVSCGIPDFRSTNGIYARLAHDFPDLPDPQAMFDINYFKRDPRPFYKFAREIYPGEFQPSPCHRFIKMLETKGKLLRNYTQNIDTLERVAGIQRVIECHGSFSTASCTKCRFKCNADALRADIFAQRIPVCPQCQPNKEQSVDASVAVTEEELRQLVENGIMKPDIVFFGEGLPDEYHTVMATDKDVCDLLIVIGSSLKVRPVAHIPSSIPATVPQILINREQLHHLKFDVELLGDSDVIINQICHRLSDNDDCWRQLCCDESVLTESKELMPPEHSNHHLHHHLLHHRHCSSESERQSQLDTDTQSIKSNSSADYILGSAGTCSDSGFESSTFSCGKRSTAAEAAAIERIKTDILVELNETTALSCDRLGLEGPQTTVESYRHLSIDSSKDSGIEQCDNEATPSYVRPSNLVQETKTVAPSLTPIPQQRGKRQTAAERLQPGTFYSHTNNYSYVFPGAQVFWDNDYSDDDDEEEERSHNRHSDLFGNVGHNYKDDDEDACDLNAVPLSPLLPPSLEAHIVTDIVNGSNEPLPNSSPGQKRTACIIEQQPTPAIETEIPPLKKRRPSEENKQQTQIERSEESPPPGQLAAV

binding (GABARAP): binds
B3: KDM4A (protein, UniProt O75164 1-1064)
chain: MASESETLNPSARIMTFYPTMEEFRNFSRYIAYIESQGAHRAGLAKVVPPKEWKPRASYDDIDDLVIPAPIQQLVTGQSGLFTQYNIQKKAMTVREFRKIANSDKYCTPRYSEFEELERKYWKNLTFNPPIYGADVNGTLYEKHVDEWNIGRLRTILDLVEKESGITIEGVNTPYLYFGMWKTSFAWHTEDMDLYSINYLHFGEPKSWYSVPPEHGKRLERLAKGFFPGSAQSCEAFLRHKMTLISPLMLKKYGIPFDKVTQEAGEFMITFPYGYHAGFNHGFNCAESTNFATRRWIEYGKQAVLCSCRKDMVKISMDVFVRKFQPERYKLWKAGKDNTVIDHTLPTPEAAEFLKESELPPRAGNEEECPEEDMEGVEDGEEGDLKTSLAKHRIGTKRHRVCLEIPQEVSQSELFPKEDLSSEQYEMTECPAALAPVRPTHSSVRQVEDGLTFPDYSDSTEVKFEELKNVKLEEEDEEEEQAAAALDLSVNPASVGGRLVFSGSKKKSSSSLGSGSSRDSISSDSETSEPLSCRAQGQTGVLTVHSYAKGDGRVTVGEPCTRKKGSAARSFSERELAEVADEYMFSLEENKKSKGRRQPLSKLPRHHPLVLQECVSDDETSEQLTPEEEAEETEAWAKPLSQLWQNRPPNFEAEKEFNETMAQQAPHCAVCMIFQTYHQVEFGGFNQNCGNASDLAPQKQRTKPLIPEMCFTSTGCSTDINLSTPYLEEDGTSILVSCKKCSVRVHASCYGVPPAKASEDWMCSRCSANALEEDCCLCSLRGGALQRANDDRWVHVSCAVAILEARFVNIAERSPVDVSKIPLPRFKLKCIFCKKRRKRTAGCCVQCSHGRCPTAFHVSCAQAAGVMMQPDDWPFVVFITCFRHKIPNLERAKGALQSITAGQKVISKHKNGRFYQCEVVRLTTETFYEVNFDDGSFSDNLYPEDIVSQDCLQFGPPAEGEVVQVRWTDGQVYGAKFVASHPIQMYQVEFEDGSQLVVKRDDVYTLDEELPKRVKSRLSVASDMRFNEIFTEKEVKQEKKRQRVINSRYREDYIEPALYRAIME
